Source: the supplement of paper PMC10849652
This is one part of the list.

Sequences of proteins named here, by UniProt entry; tags and fusion partners are left off. A change or cut given only in a name is not applied to a line headed by its entry.
UniProt P33176: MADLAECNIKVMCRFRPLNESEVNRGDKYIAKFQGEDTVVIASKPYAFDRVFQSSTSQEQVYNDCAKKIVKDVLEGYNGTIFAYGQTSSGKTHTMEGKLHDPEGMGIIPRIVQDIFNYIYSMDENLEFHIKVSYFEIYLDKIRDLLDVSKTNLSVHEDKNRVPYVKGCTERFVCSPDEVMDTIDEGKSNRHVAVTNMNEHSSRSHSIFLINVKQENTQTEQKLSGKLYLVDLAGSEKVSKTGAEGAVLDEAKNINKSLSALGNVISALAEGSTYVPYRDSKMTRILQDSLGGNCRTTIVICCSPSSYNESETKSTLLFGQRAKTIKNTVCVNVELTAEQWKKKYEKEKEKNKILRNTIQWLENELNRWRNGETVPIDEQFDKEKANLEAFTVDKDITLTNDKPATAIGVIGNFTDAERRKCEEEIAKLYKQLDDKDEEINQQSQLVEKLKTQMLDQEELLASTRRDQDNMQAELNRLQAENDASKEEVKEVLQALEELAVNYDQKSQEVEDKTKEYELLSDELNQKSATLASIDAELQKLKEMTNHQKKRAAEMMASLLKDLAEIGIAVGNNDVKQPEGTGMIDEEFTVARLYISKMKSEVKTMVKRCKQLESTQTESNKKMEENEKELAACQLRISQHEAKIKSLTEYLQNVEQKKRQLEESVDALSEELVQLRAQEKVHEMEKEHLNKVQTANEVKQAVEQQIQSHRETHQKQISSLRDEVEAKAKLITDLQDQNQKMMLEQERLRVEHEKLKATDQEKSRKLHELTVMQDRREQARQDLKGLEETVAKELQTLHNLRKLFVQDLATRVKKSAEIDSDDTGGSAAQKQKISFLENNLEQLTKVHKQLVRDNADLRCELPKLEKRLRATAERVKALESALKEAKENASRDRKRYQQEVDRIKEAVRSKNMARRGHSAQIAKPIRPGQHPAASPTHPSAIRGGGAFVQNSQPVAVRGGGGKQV
UniProt O60333: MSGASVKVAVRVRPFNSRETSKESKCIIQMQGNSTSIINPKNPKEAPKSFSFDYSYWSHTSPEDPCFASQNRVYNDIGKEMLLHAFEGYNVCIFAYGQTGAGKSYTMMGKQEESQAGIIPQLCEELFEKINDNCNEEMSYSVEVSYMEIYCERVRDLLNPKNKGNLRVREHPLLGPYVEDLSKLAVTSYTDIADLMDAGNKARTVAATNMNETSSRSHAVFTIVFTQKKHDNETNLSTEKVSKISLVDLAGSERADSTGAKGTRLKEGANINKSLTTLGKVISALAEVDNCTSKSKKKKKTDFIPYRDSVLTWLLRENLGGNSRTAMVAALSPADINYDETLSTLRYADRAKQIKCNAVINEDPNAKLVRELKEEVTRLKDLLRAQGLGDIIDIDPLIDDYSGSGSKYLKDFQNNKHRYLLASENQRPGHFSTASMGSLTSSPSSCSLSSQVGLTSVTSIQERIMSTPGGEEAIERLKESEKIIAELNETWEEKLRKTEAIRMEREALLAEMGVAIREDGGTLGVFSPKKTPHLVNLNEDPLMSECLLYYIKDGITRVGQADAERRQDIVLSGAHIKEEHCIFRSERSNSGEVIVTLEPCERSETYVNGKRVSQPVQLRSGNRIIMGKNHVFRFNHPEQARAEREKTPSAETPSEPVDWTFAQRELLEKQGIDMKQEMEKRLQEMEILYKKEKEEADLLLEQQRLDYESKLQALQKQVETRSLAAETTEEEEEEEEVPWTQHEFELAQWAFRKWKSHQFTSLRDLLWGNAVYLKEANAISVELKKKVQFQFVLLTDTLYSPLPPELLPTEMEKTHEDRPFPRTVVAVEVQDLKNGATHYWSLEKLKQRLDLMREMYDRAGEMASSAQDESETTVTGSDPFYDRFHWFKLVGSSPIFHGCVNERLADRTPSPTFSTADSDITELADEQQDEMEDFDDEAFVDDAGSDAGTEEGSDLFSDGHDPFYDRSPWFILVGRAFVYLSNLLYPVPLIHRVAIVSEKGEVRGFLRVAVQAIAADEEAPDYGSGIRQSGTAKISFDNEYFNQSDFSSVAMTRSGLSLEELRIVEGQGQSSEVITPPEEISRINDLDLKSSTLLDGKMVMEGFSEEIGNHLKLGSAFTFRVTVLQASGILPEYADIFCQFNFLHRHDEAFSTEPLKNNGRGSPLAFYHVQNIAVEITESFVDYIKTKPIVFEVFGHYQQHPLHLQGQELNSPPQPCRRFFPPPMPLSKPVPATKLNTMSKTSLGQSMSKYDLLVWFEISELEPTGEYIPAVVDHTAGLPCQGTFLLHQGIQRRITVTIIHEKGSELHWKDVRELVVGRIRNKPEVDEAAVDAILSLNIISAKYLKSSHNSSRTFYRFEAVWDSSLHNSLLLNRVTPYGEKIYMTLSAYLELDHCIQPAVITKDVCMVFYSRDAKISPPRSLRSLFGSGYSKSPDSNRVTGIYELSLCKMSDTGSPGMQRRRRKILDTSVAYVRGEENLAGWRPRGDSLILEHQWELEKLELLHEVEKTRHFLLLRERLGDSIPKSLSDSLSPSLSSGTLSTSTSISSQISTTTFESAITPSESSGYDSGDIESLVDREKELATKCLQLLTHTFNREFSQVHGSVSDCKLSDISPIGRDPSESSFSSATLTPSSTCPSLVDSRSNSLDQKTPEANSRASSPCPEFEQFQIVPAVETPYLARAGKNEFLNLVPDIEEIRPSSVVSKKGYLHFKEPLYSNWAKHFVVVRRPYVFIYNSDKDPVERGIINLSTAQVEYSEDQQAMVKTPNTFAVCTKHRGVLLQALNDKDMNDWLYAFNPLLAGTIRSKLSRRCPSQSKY
UniProt Q99661: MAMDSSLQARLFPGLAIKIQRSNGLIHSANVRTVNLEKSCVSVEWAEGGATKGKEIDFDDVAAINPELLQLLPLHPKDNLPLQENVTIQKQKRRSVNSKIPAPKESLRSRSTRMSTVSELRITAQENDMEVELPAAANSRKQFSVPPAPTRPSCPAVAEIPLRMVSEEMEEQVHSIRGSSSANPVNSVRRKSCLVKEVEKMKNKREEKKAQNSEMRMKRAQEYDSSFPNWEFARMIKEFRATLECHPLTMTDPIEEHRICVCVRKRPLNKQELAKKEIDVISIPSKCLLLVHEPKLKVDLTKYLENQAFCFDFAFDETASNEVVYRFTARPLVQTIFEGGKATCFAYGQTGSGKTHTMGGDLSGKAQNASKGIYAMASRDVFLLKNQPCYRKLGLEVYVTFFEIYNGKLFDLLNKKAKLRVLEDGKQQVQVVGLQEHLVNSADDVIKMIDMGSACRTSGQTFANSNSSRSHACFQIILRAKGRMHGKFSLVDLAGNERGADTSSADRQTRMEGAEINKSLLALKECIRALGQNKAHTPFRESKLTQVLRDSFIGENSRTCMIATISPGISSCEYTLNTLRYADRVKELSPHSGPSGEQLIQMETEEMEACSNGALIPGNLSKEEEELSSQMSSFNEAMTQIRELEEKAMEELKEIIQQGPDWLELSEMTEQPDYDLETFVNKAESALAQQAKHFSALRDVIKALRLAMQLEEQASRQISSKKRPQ
UniProt Q9H0B6: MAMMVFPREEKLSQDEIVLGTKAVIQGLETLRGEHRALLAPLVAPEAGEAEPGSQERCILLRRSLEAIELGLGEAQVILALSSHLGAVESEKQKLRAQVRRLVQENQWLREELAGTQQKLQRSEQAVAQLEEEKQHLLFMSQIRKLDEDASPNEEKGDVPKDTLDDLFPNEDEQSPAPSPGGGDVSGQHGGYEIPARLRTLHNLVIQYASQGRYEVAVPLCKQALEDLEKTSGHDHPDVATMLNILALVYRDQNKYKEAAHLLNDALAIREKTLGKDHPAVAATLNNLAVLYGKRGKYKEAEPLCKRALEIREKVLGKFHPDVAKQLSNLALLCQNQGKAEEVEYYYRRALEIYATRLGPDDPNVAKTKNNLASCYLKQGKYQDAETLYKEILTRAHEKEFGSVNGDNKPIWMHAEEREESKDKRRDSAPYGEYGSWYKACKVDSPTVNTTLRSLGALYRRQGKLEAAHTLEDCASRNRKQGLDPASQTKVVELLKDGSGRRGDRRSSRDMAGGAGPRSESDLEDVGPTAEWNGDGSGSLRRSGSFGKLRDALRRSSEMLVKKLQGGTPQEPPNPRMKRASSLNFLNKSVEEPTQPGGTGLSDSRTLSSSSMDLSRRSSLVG
UniProt Q12840: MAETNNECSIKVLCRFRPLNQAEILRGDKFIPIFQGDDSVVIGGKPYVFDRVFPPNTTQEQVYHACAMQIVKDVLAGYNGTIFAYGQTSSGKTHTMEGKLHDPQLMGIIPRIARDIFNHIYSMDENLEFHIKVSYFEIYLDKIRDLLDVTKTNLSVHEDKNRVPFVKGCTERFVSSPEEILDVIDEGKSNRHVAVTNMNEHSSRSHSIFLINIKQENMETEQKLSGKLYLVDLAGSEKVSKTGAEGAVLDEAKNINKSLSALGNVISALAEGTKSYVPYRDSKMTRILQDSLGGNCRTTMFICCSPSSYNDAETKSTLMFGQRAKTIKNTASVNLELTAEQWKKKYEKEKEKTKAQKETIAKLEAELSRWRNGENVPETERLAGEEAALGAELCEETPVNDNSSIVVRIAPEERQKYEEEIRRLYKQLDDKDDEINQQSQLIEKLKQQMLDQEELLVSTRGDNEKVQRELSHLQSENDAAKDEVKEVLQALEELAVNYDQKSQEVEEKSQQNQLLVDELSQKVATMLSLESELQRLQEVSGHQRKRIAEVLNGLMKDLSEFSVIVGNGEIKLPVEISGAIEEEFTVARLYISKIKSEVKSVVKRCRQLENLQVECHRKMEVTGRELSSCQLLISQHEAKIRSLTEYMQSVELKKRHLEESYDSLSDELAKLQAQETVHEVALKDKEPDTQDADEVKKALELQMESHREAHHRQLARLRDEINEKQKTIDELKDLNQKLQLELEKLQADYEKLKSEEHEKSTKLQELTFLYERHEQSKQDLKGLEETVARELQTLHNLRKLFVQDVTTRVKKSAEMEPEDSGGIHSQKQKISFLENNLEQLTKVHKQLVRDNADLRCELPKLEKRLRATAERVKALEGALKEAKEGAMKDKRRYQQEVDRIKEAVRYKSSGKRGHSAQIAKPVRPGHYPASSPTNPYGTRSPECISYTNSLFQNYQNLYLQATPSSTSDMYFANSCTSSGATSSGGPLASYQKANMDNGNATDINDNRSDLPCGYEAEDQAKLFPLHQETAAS
UniProt O94889: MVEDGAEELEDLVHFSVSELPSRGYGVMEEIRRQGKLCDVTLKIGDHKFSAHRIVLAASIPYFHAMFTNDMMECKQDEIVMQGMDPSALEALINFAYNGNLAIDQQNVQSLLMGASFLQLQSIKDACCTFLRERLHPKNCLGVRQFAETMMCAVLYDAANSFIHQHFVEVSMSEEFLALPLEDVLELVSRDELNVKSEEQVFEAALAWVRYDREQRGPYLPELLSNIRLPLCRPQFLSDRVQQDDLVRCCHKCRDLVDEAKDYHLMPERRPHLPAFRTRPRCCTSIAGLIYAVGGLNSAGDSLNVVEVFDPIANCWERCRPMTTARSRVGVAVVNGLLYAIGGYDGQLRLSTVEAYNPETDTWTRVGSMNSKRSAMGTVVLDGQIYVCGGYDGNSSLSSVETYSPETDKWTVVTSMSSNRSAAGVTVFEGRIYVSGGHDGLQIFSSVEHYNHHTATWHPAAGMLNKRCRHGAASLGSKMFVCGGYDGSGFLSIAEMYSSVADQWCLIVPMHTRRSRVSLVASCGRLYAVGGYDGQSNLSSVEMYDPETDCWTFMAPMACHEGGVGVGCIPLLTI
UniProt P83111: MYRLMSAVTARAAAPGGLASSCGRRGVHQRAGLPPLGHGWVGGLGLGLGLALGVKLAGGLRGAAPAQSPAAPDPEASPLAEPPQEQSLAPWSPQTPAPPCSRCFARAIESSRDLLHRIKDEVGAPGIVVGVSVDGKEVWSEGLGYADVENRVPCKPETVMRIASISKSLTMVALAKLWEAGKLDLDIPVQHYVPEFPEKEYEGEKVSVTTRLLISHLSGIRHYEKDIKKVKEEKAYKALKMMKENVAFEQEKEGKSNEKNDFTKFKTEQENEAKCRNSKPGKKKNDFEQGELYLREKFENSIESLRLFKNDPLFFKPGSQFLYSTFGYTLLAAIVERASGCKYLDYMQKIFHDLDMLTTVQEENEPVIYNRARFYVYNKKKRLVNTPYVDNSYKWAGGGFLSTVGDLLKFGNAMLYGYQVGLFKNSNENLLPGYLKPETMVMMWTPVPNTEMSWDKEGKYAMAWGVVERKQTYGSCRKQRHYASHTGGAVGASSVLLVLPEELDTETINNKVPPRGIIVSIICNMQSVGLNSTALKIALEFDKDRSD
UniProt Q9BQD3: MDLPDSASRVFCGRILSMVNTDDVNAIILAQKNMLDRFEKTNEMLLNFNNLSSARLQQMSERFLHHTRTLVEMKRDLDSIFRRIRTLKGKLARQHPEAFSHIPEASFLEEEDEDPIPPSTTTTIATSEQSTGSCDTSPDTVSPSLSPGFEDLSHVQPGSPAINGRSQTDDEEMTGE

These targets were tested with C1=CC(=CC=C1C2=NC3=C(N2)C=C(C=C3)C(=O)N)OC4=CC=C(C=C4)Cl (assay: log2 fold change, soluble protein after heating vs DMSO (PISA); higher = thermal stabilisation; K562 lysate, 10 uM; active = over 0.2 and 3.5 SD of the protein, either way, in both replicates (recomputed)).
Procedure, shortened: (§1)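 Log-two fold change in thermal stability relative to solvent controls is reported from duplicates. For each sample, crude K562 extract from dounce-homogenised pellets in PBS pH 7.4 with 1 mM MgCl2, at 1 mg/mL protein, was treated with 10 μM compound for 30 min. Aliquots heated for 3 min across 48°C-58°C were pooled, brought to 0.5% NP-40 at 4°C and cleared at 21,000xg for 90 min. The supernatant was quantified by TMTpro 16plex LC-MS/MS with channel sums equalised.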

log2 fold change, inactive:
KLHDC4 (UniProt Q8TBB5) 0.056
KIF5B (UniProt P33176) 0.013
KIAA2013 (UniProt Q8IYS2) 0.02
KIF1B isoform 2 (UniProt O60333) 0.028
KTI12 (UniProt Q96EK9) 0.035
KDSR (UniProt Q06136) 0.025
KIF2C (UniProt Q99661) -0.008
LANCL1 (UniProt O43813) 0.016
KPTN (UniProt Q9Y664) 0.063
LARP7 isoform 3 (UniProt Q4G0J3) 0.007
KDM8 isoform 3 (UniProt Q8N371) -0.039
KEAP1 (UniProt Q14145) 0.018
KLC2 (UniProt Q9H0B6) 0.07
KPNB1 (UniProt Q14974) 0.008
KSR1 (UniProt Q8IVT5) -0.038
KPNA2 (UniProt P52292) -0.026
KLHDC3 (UniProt Q9BQ90) -0.021
KYAT3 (UniProt Q6YP21) -0.004
LARP4 isoform 4 (UniProt Q71RC2) 0.003
KIF5A (UniProt Q12840) 0.01
KIAA1191 (UniProt Q96A73) 0.047
KIF2A isoform 4 (UniProt O00139) -0.014
KIAA1324L (UniProt A8MWY0) 0.064
KLHL18 (UniProt O94889) -0.033
KIF15 (UniProt Q9NS87) -0.01
KRR1 (UniProt Q13601) -0.007
LACTB (UniProt P83111) -0.028
KXD1 (UniProt Q9BQD3) 0.052
KMT2D isoform 3 (UniProt O14686) 0.031
KYAT1 (UniProt Q16773) 0.012
KIN (UniProt O60870) 0.007
LAMTOR4 (UniProt Q0VGL1) -0.003

The targets below were run with C1=CC2=C(C=CC(=C2)/C=C\3/C(=O)NC(=NCC4=CC=CS4)S3)N=C1 in the same assay as above.
Procedure, shortened: as §1

log2 fold change, inactive:
KLHDC4 (UniProt Q8TBB5) 0.069
KIF5B (UniProt P33176) 0
KIAA2013 (UniProt Q8IYS2) 0.03
KIF1B isoform 2 (UniProt O60333) -0.058
KTI12 (UniProt Q96EK9) -0.041
KDSR (UniProt Q06136) -0.013
KIF2C (UniProt Q99661) -0.01
LANCL1 (UniProt O43813) 0.027
KPTN (UniProt Q9Y664) -0.076
LARP7 isoform 3 (UniProt Q4G0J3) -0.006
KDM8 isoform 3 (UniProt Q8N371) 0.027
KEAP1 (UniProt Q14145) -0.005
KLC2 (UniProt Q9H0B6) 0.008
KPNB1 (UniProt Q14974) -0.001
KSR1 (UniProt Q8IVT5) 0.058
KPNA2 (UniProt P52292) 0.005
KLHDC3 (UniProt Q9BQ90) 0.014
KYAT3 (UniProt Q6YP21) 0.002
LARP4 isoform 4 (UniProt Q71RC2) 0.009
KIF5A (UniProt Q12840) 0
KIAA1191 (UniProt Q96A73) -0.026
KIF2A isoform 4 (UniProt O00139) -0.007
KIAA1324L (UniProt A8MWY0) -0.003
KLHL18 (UniProt O94889) -0.057
KIF15 (UniProt Q9NS87) 0.011
KRR1 (UniProt Q13601) -0.019
LACTB (UniProt P83111) 0.028
KXD1 (UniProt Q9BQD3) -0.024
KMT2D isoform 3 (UniProt O14686) -0.001
KYAT1 (UniProt Q16773) 0.045
KIN (UniProt O60870) 0.014
LAMTOR4 (UniProt Q0VGL1) -0.003

What follows are targets tested with C1=CC2=NC=CN=C2C=C1/C=C/3\C(=O)NC(=O)S3 in the same assay as above.
Procedure, shortened: as §1

log2 fold change, inactive:
KLHDC4 (UniProt Q8TBB5) -0.011
KIF5B (UniProt P33176) -0.026
KIAA2013 (UniProt Q8IYS2) -0.02
KIF1B isoform 2 (UniProt O60333) -0.001
KTI12 (UniProt Q96EK9) -0.022
KDSR (UniProt Q06136) -0.018
KIF2C (UniProt Q99661) -0.008
LANCL1 (UniProt O43813) 0.013
KPTN (UniProt Q9Y664) 0.005
LARP7 isoform 3 (UniProt Q4G0J3) -0.011
KDM8 isoform 3 (UniProt Q8N371) -0.014
KEAP1 (UniProt Q14145) 0.014
KLC2 (UniProt Q9H0B6) -0.056
KPNB1 (UniProt Q14974) 0.008
KSR1 (UniProt Q8IVT5) 0.022
KPNA2 (UniProt P52292) 0.002
KLHDC3 (UniProt Q9BQ90) -0.021
KYAT3 (UniProt Q6YP21) 0.016
LARP4 isoform 4 (UniProt Q71RC2) -0.005
KIF5A (UniProt Q12840) -0.024
KIAA1191 (UniProt Q96A73) -0.072
KIF2A isoform 4 (UniProt O00139) -0.037
KIAA1324L (UniProt A8MWY0) -0.038
KLHL18 (UniProt O94889) 0.055
KIF15 (UniProt Q9NS87) -0.019
KRR1 (UniProt Q13601) 0.009
LACTB (UniProt P83111) -0.027
KXD1 (UniProt Q9BQD3) -0.116
KMT2D isoform 3 (UniProt O14686) -0.023
KYAT1 (UniProt Q16773) 0.04
KIN (UniProt O60870) 0.037
LAMTOR4 (UniProt Q0VGL1) 0.009
